The results in this text go back to paper PMC7819943, “Rice protein-binding microarrays: a tool to detect cis-acting elements near promoter regions in rice”.

Some of the results follow.

The assay deals with T1, OsSMF1 (Oryza sativa, UniProt Q6ZLB0 1-436).
T1 sequence: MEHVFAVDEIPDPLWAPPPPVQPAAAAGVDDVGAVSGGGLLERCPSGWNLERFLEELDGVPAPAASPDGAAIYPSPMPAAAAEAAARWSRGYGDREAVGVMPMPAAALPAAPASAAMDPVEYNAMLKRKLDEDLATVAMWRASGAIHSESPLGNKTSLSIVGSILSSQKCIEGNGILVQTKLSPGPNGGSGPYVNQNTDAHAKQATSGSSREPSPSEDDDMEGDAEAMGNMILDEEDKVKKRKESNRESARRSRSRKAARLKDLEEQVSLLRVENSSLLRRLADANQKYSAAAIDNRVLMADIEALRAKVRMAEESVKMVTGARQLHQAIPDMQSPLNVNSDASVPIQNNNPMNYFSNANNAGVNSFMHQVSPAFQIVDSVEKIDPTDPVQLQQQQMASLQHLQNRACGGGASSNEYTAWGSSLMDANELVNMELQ
Briefly: protein-binding microarray (RPBM); PBS, 2% BSA, 51.3 ng/ul salmon testes DNA, 50 uM zinc acetate, 200 nM TF, 25 C, 1 h; high values mean tight binding. The settings on record: protein: recombinant; tags: N-terminal polyhistidine and DsRed monomer fusion (pET32a); chain copies: 2; label: CyDye5-dUTP incorporated in the synthesized complementary strand; 3' TTTTT single-stranded linker to array surface; dsDNA, one strand shown. In outline:
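Per-feature fluorescence intensity (arbitrary units), read on an Axon 4000B scanner, is the binding signal. Transcription factors carrying an N-terminal polyhistidine tag and DsRed fusion were expressed in E. coli BL21-CodonPlus and purified on Ni–NTA. A custom Agilent array, made double-stranded by primer extension with Cy5-dUTP and blocked with 2% BSA, was incubated with 200 nM protein in PBS, 2% BSA, salmon testes DNA and 50 µM zinc acetate at 25 °C for 1 h and then washed.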
Regarding “TCTGGACCACATAAACGAGAGAGAGAGAGAAGTCCAAGCCCGGAGTCACCTAGTGCAG”, the binding signal is 47900 fluorescence intensity (a.u.).
“AAGCCATTGGAGAGGAAGGACATAGCTGAGATCGCGGTGGCGGAGTCACCTAGTGCAG”: the binding signal was 4180 fluorescence intensity (a.u.).
“ACATCACCACCCACCTCACCCTGCCGCTCCCGAGCGCGATCGGAGTCACCTAGTGCAG”: the binding signal was 4000 fluorescence intensity (a.u.).
With “CAGCACGTGCGTGGTAATCCCGTGTCGGCCCATTATACAACGGAGTCACCTAGTGCAG”, the binding signal is 3200 fluorescence intensity (a.u.).
The value for “CGGCTTACGGCCGCCTGTCGGGGAAGATGACTCCCTCTTCCGGAGTCACCTAGTGCAG” was 5050 fluorescence intensity (a.u.).
The value for “GGCAGTCGTGACGGAGACGATGGCCATGTCGTCGAACGAACGGAGTCACCTAGTGCAG” was 3160 fluorescence intensity (a.u.); that for “CGTCAGTCATCGAGTCCACTTCATCATCTAGTCAGAGTGACGGAGTCACCTAGTGCAG” was 3970 fluorescence intensity (a.u.); that for “AGGAGAGGGAAGAGAGAGGGCGCTGACGTTGCATCCTGACCGGAGTCACCTAGTGCAG” was 12400 fluorescence intensity (a.u.).
In the case of “GATGCGATGCGCCGGCCCACGTCGGCCCATCATCTGACGCCGGAGTCACCTAGTGCAG”, the binding signal was 5360 fluorescence intensity (a.u.).
The value for “CGAGTCGAGTCCCGGTTCGAGTCAGACGCGGGCCGCCTCCCGGAGTCACCTAGTGCAG” was 3580 fluorescence intensity (a.u.); that for “GTACAGTACATGCGCGCGTGCGTGTGCATCATCAGCGATGCGGAGTCACCTAGTGCAG” was 7570 fluorescence intensity (a.u.).
As to “AAGTACCTTACCATCCCAACCACCCTATTCTCTCTCTAGCCGGAGTCACCTAGTGCAG”, the binding signal is 3550 fluorescence intensity (a.u.).
For “CCACGAGATGATGATGGCAAGTTCAAACGGAGCTGGAGGCCGGAGTCACCTAGTGCAG” the value was 3200 fluorescence intensity (a.u.).
For “CCGGCTCATCCGAGAACGCGACGGCCTTGTCACCAGTAATCGGAGTCACCTAGTGCAG” the value was 5050 fluorescence intensity (a.u.); for “CCGCGCTGGTGCCACCACTACATGATGCAGTTCACGCACACGGAGTCACCTAGTGCAG”, 3910 fluorescence intensity (a.u.); for “CTTGGGCTACTCAACCTTGTCAAGCTCCAAGTCACAACCGCGGAGTCACCTAGTGCAG”, 3340 fluorescence intensity (a.u.).
The value for “TCGCAACTCCACCTTCTTCCCACGCTCTATTGGGTTTAAACGGAGTCACCTAGTGCAG” was 3720 fluorescence intensity (a.u.); that for “CAACGTGACTATTATTTAGGGCAATTACAAATTTACCACTCGGAGTCACCTAGTGCAG” was 4320 fluorescence intensity (a.u.); that for “TGCGCGTGCTGCGTGTCGTACAGCGCATATATAATACTCCCGGAGTCACCTAGTGCAG” was 38300 fluorescence intensity (a.u.).
As to “CGCTCCAGTCGACTCACCATCGATCCATCTGACGGTTAGTCGGAGTCACCTAGTGCAG”, the binding signal was 4270 fluorescence intensity (a.u.).
For “AGCACACGTTTTGACTATGCTATCAAGGATGATGTGGCAACGGAGTCACCTAGTGCAG” the value was 9450 fluorescence intensity (a.u.); for “TGTTTGGTATTTACTAGACGTCAGATTTACGTCAACAACACGGAGTCACCTAGTGCAG”, 4710 fluorescence intensity (a.u.); for “CCCGGCGCCGGCGGCCGTGCTGATGCGATGCGTGCATGTCCGGAGTCACCTAGTGCAG”, 4360 fluorescence intensity (a.u.).
The value for “CCGGAGCCGGAAGCTGACGCGTGGCACGTGGTCGGCGAGGCGGAGTCACCTAGTGCAG” was 8390 fluorescence intensity (a.u.).
“TTGGTTGAATGATAACTTAGCTCACTGAGTGACAGGTTTTCGGAGTCACCTAGTGCAG”: the binding signal is 3310 fluorescence intensity (a.u.).
The value for “GCCCTTCAATTTCATGCCATGCAGGCGATGAGTTGGCAAACGGAGTCACCTAGTGCAG” was 7570 fluorescence intensity (a.u.); that for “CAATCTCCTCCGGCGTTGTCGACGTCGGCCTTGAGCCCGCCGGAGTCACCTAGTGCAG” was 3670 fluorescence intensity (a.u.).
The value for “GTGCACGCACGCTGACCTGGCGGCATTCCGGCCCAGCCCACGGAGTCACCTAGTGCAG” was 11900 fluorescence intensity (a.u.); that for “TCGACGCCGACTTCCCCTCCGACGACGATGACGACGACGACGGAGTCACCTAGTGCAG” was 4230 fluorescence intensity (a.u.); that for “TTGAGGTCACATGATTTGCCTCAGGCCACACGTCACTCGACGGAGTCACCTAGTGCAG” was 9070 fluorescence intensity (a.u.).
The value for “CCATCCGATCGCCATCATCTCATCATCAGTTCATCACCAACGGAGTCACCTAGTGCAG” was 3570 fluorescence intensity (a.u.).
Take “GGCAGCAGGTGGAGGTGACGCGGCGGCAGGACTACGAGCGCGGAGTCACCTAGTGCAG”: the binding signal was 3140 fluorescence intensity (a.u.).
For “TGGGACCCATTGACATGTGGGGCCCACATGTCATCCTCTCCGGAGTCACCTAGTGCAG” the value was 3200 fluorescence intensity (a.u.); for “ATCAACGCTACGTATATGCGCGCCGTGTTACGTATCTCTTCGGAGTCACCTAGTGCAG”, 3780 fluorescence intensity (a.u.); for “GCCTCCACCACCACGCCGCGTCACCGGCGGCGGAGCGGCGCGGAGTCACCTAGTGCAG”, 5770 fluorescence intensity (a.u.).
With “CTTTGGCTTTTAGCCATAGACTTTGATCCATGAGTTAGAACGGAGTCACCTAGTGCAG”, the binding signal was 40900 fluorescence intensity (a.u.).
For “CCGTTGCCGCGCCGTGGACCGACAGCCACTGACGTCACCCCGGAGTCACCTAGTGCAG” the value was 18600 fluorescence intensity (a.u.); for “GGAGGATGGTTTCGCTGATGTGGCGACTACGTGGTGGTGTCGGAGTCACCTAGTGCAG”, 19900 fluorescence intensity (a.u.).
The value for “ACGGCACACCGCGTGCCTCACGAGTGACGTGTTCCGTCGCCGGAGTCACCTAGTGCAG” was 4900 fluorescence intensity (a.u.).
For “AAATAAACTAAGCACATGATGCATAACAATCACAATAGAACGGAGTCACCTAGTGCAG”, the binding signal is 3340 fluorescence intensity (a.u.).
Turning to “CAGCAGCAGATGCAAACGCAGCCTTTGTACTTTCGGGAATCGGAGTCACCTAGTGCAG”, the binding signal is 3690 fluorescence intensity (a.u.).
Turning to “TTGAGCTTTGCTGATTCAGCAGTGCTCATCTACGTGGACACGGAGTCACCTAGTGCAG”, the binding signal was 16000 fluorescence intensity (a.u.).
Regarding “TAATTCAGATTCGTGGTATTAAAATGTTTCGCATTCCATACGGAGTCACCTAGTGCAG”, the binding signal was 3370 fluorescence intensity (a.u.).
For “GCTGTGATCGATGATATACTACGGTACACAGCCGGTAGTACGGAGTCACCTAGTGCAG”, the binding signal is 3620 fluorescence intensity (a.u.).
For “GATTAATACGACTACTGTCATACGTACTGTACATGTCATGCGGAGTCACCTAGTGCAG” the value was 3720 fluorescence intensity (a.u.); for “GTTGAGGGATGACAGGTGGACTTATTTCCTATTTCATGTGCGGAGTCACCTAGTGCAG”, 6590 fluorescence intensity (a.u.); for “GTATTATGGATTTACGGGTGCCAACAGTTTTGATGGTAAGCGGAGTCACCTAGTGCAG”, 3530 fluorescence intensity (a.u.).
As to “GGTTTTCCTCGACAAGTACCCTGCAGGCTGCAGCATGCCACGGAGTCACCTAGTGCAG”, the binding signal is 3900 fluorescence intensity (a.u.).
For “CCCAAGGAGGATGAGGTGGAGGTGGGAGTGCGCATTGAGGCGGAGTCACCTAGTGCAG” the value was 4880 fluorescence intensity (a.u.); for “AGATGCTAACCAATGACGTGGTGATTAACCCGTACGTGATCGGAGTCACCTAGTGCAG”, 15300 fluorescence intensity (a.u.); for “TCATTAATTAATTAATTACAGTGGTAGATGATGATGTAGTCGGAGTCACCTAGTGCAG”, 3250 fluorescence intensity (a.u.).
The value for “GATGGGATTGGGACAAAGATATGAGTGGAGGGTTGAGATGCGGAGTCACCTAGTGCAG” was 3390 fluorescence intensity (a.u.).
The value for “CTATTGTACATGTACGGGTGCACTGACAGCACGTGAGACGCGGAGTCACCTAGTGCAG” was 3820 fluorescence intensity (a.u.); that for “AGAGGAGGATGACGTGGATACGCTGACATGTGGGGTCCACCGGAGTCACCTAGTGCAG” was 13100 fluorescence intensity (a.u.).
